Earlier results as cited in US20110038921A1, “METHODS AND COMPOSITIONS FOR TEMPORAL RELEASE OF AGENTS FROM A BIODEGRADABLE SCAFFOLD” (Clemson University Research Foundation, priority 2009, published 2011).
For some assays here: At least one compound was matched to its structure with a doubt left. Some results were stated once for a whole list of compounds, not compound by compound.

Legend:
MMP-1 = conditions: macrophages; by inhibiting ERK activity; cited from earlier work
[1] = delivered in a soluble form in vivo; cited from earlier work

Molecule | LPS-stimulated MMP-1 expression (MMP-1) | Half-life [1]
CCC(C)(C)C(=O)O[C@H]1C[C@@H](C)C=C2C=C[C@H](C)[C@H](CC[C@@H]3C[C@@H](O)CC(=O)O3)[C@H]21 [simvastatin] | suppressed | –
PDGF | – | less than 20 minutes
